Data published in publication PMC12398889.

Molecular target: T1, Flag-CPNE5 (mouse CPNE5 cDNA with a Flag tag in pcDNA3.1(+)) (mouse) (UniProt Q8JZW4)
T1 sequence: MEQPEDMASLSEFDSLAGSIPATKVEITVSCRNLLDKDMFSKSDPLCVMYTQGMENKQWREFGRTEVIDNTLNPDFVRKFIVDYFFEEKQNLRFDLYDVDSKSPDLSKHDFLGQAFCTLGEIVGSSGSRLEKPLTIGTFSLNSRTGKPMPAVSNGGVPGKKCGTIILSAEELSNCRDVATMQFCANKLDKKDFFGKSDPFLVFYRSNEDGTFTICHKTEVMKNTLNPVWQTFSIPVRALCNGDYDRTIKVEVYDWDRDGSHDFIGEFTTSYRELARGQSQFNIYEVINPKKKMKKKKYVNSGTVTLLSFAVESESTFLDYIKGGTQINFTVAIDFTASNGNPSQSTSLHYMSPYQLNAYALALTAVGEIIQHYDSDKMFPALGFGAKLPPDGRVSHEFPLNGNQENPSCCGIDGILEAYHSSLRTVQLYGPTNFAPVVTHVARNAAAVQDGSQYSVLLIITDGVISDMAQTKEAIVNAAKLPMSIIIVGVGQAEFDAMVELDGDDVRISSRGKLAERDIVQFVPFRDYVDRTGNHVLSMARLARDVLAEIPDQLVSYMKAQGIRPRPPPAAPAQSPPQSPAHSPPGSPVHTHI
Experiment: affinity purification with mass spectrometry; anti-Flag IP from NMCMs transfected with Flag-Cpne5; SDS-PAGE, Coomassie, bands differing from the control analysed by LC-ESI-MS

binding: binds
B1: FAS receptor (receptor, UniProt P25446 22-327)
chain: QGTNSISESLKLRRRVRETDKNCSEGLYQGGPFCCQPCQPGKKKVEDCKMNGGTPTCAPCTEGKEYMDKNHYADKCRRCTLCDEEHGLEVETNCTLTQNTKCKCKPDFYCDSPGCEHCVRCASCEHGTLEPCTATSNTNCRKQSPRNRLWLLTILVLLIPLVFIYRKYRKRKCWKRRQDDPESRTSSRETIPMNASNLSLSKYIPRIAEDMTIQEAKKFARENNIKEGKIDEIMHDSIQDTAEQKVQLLLCWYQSHGKSDAYQDLIKGLKKAECRRTLDKFQDMVQKDLGKSTPDTGNENEGQCLE

Results are given in words; binding and its absence hold for the method and conditions named. In cells and extracts the contact can be indirect. These calls come from enrichment with a bait or labelling near it, and not all partners need be listed. Where a sequence is shown, tags or fusion partners need not be part of it.
